{"source": "PubChem BioAssay AID1259304 (Sanger Institute, 2017)", "aim": "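Kinase partners that kill colorectal cancer cells together with three anchor drugs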 (secondary deconvolution rescreen of primary hits)", "cells": "HT115 human colorectal cancer cells", "reagents": "single siRNA against human genes", "challenge": "anchor drugs BYL719 at 1 µM, cetuximab at 5 µg/ml or trametinib at 10 nM, each set against DMSO vehicle", "read-out": "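Replicate-averaged viability as a fraction of non-targeting control, with a drug-siRNA synergy score from joint versus separate effects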", "reading the numbers": "synergy score with BYL719: higher = stronger synthetic lethal interaction with BYL719; synergy score with cetuximab: higher = stronger synthetic lethal interaction with cetuximab; synergy score with trametinib: higher = stronger synthetic lethal interaction with trametinib", "active means": "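Called active when the synergy score is above 0.10 for any of BYL719, cetuximab or trametinib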", "calls": "active = synergy with at least one anchor drug; inactive = no synergy with any anchor drug", "note": "Shown is one part, drawn at random, of 160 reagents. 88 of them (55%) were called active. 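Four siRNAs per gene, each called on its own in one cell line; calls are not confirmed gene-level hits.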 Reagents against one gene are numbered here. Not all columns of the deposit are shown. Not stated in the record: the amount of reagent, the time to read-out."}
{"gene symbol": "NR2F2", "reagent no.": 1, "synergy score with BYL719": -0.0145, "synergy score with cetuximab": 0.0812, "synergy score with trametinib": 0.273, "Outcome": "active"}
{"gene symbol": "NR2F2", "reagent no.": 2, "synergy score with BYL719": -0.0724, "synergy score with cetuximab": -0.146, "synergy score with trametinib": 0.0818, "Outcome": "inactive"}
{"gene symbol": "NR2F2", "reagent no.": 3, "synergy score with BYL719": 0.0205, "synergy score with cetuximab": -0.113, "synergy score with trametinib": 0.158, "Outcome": "active"}
{"gene symbol": "NR2F2", "reagent no.": 4, "synergy score with BYL719": 0.0177, "synergy score with cetuximab": 0.146, "synergy score with trametinib": 0.413, "Outcome": "active"}
{"gene symbol": "BMPR2", "reagent no.": 1, "synergy score with BYL719": -0.143, "synergy score with cetuximab": -0.0506, "synergy score with trametinib": 0.0437, "Outcome": "inactive"}
{"gene symbol": "BMPR2", "reagent no.": 2, "synergy score with BYL719": -0.101, "synergy score with cetuximab": -0.137, "synergy score with trametinib": 0.0266, "Outcome": "inactive"}
{"gene symbol": "BMPR2", "reagent no.": 3, "synergy score with BYL719": -0.15, "synergy score with cetuximab": -0.144, "synergy score with trametinib": -0.0638, "Outcome": "inactive"}
{"gene symbol": "BMPR2", "reagent no.": 4, "synergy score with BYL719": -0.08, "synergy score with cetuximab": -0.0205, "synergy score with trametinib": 0.0507, "Outcome": "inactive"}
{"gene symbol": "CRIM1", "reagent no.": 1, "synergy score with BYL719": -0.0937, "synergy score with cetuximab": 0.00304, "synergy score with trametinib": 0.154, "Outcome": "active"}
{"gene symbol": "CRIM1", "reagent no.": 2, "synergy score with BYL719": -0.042, "synergy score with cetuximab": -0.0172, "synergy score with trametinib": 0.106, "Outcome": "active"}
{"gene symbol": "CRIM1", "reagent no.": 3, "synergy score with BYL719": -0.0212, "synergy score with cetuximab": -0.00664, "synergy score with trametinib": 0.13, "Outcome": "active"}
{"gene symbol": "CRIM1", "reagent no.": 4, "synergy score with BYL719": 0.101, "synergy score with cetuximab": 0.137, "synergy score with trametinib": 0.234, "Outcome": "active"}
{"gene symbol": "MPP3", "reagent no.": 1, "synergy score with BYL719": -0.0942, "synergy score with cetuximab": -0.0585, "synergy score with trametinib": 0.0185, "Outcome": "inactive"}
{"gene symbol": "MPP3", "reagent no.": 2, "synergy score with BYL719": 0.0273, "synergy score with cetuximab": 0.0482, "synergy score with trametinib": 0.0385, "Outcome": "inactive"}
{"gene symbol": "MPP3", "reagent no.": 3, "synergy score with BYL719": 0.224, "synergy score with cetuximab": 0.251, "synergy score with trametinib": 0.427, "Outcome": "active"}
{"gene symbol": "MPP3", "reagent no.": 4, "synergy score with BYL719": -0.00131, "synergy score with cetuximab": 0.0978, "synergy score with trametinib": 0.276, "Outcome": "active"}
{"gene symbol": "ACVR1", "reagent no.": 1, "synergy score with BYL719": -0.0314, "synergy score with cetuximab": -0.136, "synergy score with trametinib": -0.0254, "Outcome": "inactive"}
{"gene symbol": "ACVR1", "reagent no.": 2, "synergy score with BYL719": 0.0279, "synergy score with cetuximab": 0.0113, "synergy score with trametinib": 0.11, "Outcome": "active"}
{"gene symbol": "ACVR1", "reagent no.": 3, "synergy score with BYL719": -0.119, "synergy score with cetuximab": 0.209, "synergy score with trametinib": 0.331, "Outcome": "active"}
{"gene symbol": "ACVR1", "reagent no.": 4, "synergy score with BYL719": -0.136, "synergy score with cetuximab": -0.0987, "synergy score with trametinib": 0.0639, "Outcome": "inactive"}

Copied from the listing for reference:
{"gene symbol": "BMPR2", "reagent no.": 4, "synergy score with BYL719": -0.08, "synergy score with cetuximab": -0.0205, "synergy score with trametinib": 0.0507, "Outcome": "inactive"}
{"gene symbol": "CRIM1", "reagent no.": 1, "synergy score with BYL719": -0.0937, "synergy score with cetuximab": 0.00304, "synergy score with trametinib": 0.154, "Outcome": "active"}
